From patent US20170267762A1
These are yes or no findings as the source states them, for the method shown. Some entries that bind do so weakly or less than the wild type.

Chains of the proteins cited; added tags and fusions are not shown. Residues count along the entry.
UniProt Q15116, residues 25-167: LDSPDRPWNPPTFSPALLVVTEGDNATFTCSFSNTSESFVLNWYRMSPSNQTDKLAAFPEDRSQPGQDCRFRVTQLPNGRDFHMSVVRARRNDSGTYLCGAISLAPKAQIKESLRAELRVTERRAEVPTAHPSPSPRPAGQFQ

B1: humanized 7A4 (isotype not stated) (antibody, V domains shown)
VH: QIQLVQSGSELKKPGASVKVSCKASGYTFTNFGMNWVRQAPGQGLKWMGWISGYTREPTYAADFKGRFVISLDTSVSTAYLQISSLKAEDTAVYYCARDVFDYWGQGTLVTVSS
VL: DIVLTQSPASLAVSPGQRATITCRASESVDNYGYSFMNWFQQKPGQPPKLLIYRASNLESGVPARFSGSGSRTDFTLTINPVEANDTANYYCQQSNADPTFGQGTKLEIK
B2: humanized 7A4D-hIgG4 (antibody, V domains shown)
VH: B1 VH
VL: DIVLTQSPASLAVSPGQRATITCRASESVDNYGYSFMNWFQQKPGQPPKLLIYRASNLESGVPARFSGSGSRTDFTLTINPVEADDTANYYCQQSNADPTFGQGTKLEIKR
B3: humanized 13F1 (isotype not stated) (antibody, V domains shown)
VH: QVQLQESGPGLVKPSQTLSLTCTVSGYSISSDYAWNWIRQPPGKGLEWMAYISYSGYTSYNPSLKSRITISRDTSKNQFSLKLSSVTAADTAVYYCARSLDYDYGTMDYWGQGTLVTVSS
VL: EIVLTQSPATLSLSPGERATLSCRANSSVSSMHWYQQKPGQSPEPWIYAISNLAFGVPARFSGSGSGTDYTLTISSLEPEDFAVYYCQQWSSRPPTFGQGTKLEIK

biological target: human PD-1 (construct not stated) (human) (UniProt Q15116); assay: Biacore 3000, antibody captured, PD-1 analyte

binding, binds:
B1
B2
B3
